# Measured values as given in the supplement of paper PMC4683952.
# Some of the results follow. No stated cut-off is given here; in the data, active = 2 or more and inactive = the rest. Single values are uncertain here, since repeats match poorly.
# Test system: Lgr5 (MarsCy1-Lgr5-EGFP, U2OS)
# Experiment: cell-surface Lgr5 expression (SCi1 fluorescence, background-subtracted) relative to WT DMSO (fold of DMSO control); higher = more Lgr5 at the plasma membrane
# Details: U2OS MarsCy1-Lgr5-EGFP stable; treatment time: overnight; library: ActiProbe-5K (TimTec); 25 µM
row,SMILES,cell-surface Lgr5 expression
1,COc1cc(-c2nc3sc(-c4cc(OC)c(OC)c(OC)c4)nc3s2)cc(OC)c1OC,inactive: 1.2
2,O=C(N/N=C/c1ccco1)c1ccco1,inactive: 1.11
3,COc1cc(CSc2nnc(C34CC5CC(CC(C5)C3)C4)o2)cc(OC)c1OC,inactive: 1.02
4,Cn1ncc(Cl)c1C(=O)NN,inactive: 1.24
5,NS(=O)(=O)c1ccc(CNS(=O)(=O)c2cc(Cl)ccc2Cl)cc1,inactive: 1.31
6,O=C(O)CC(S/C(=N/C1C=CCCC1)N1CCCCC1)C(=O)O (centres undefined),inactive: 1.03
7,COc1ccc(-c2nnc(S)o2)cc1OC,inactive: 1.55
8,CC1(C)OCCN2C(=O)OC3(C)CCC1C23C (centres undefined),inactive: 0.855
9,Cc1ccc(C2C(C(=O)c3ccco3)=C(O)C(=O)N2CCN2CCOCC2)o1 (centres undefined),inactive: 1.07
10,Cn1cc(-c2cc(C(F)F)c3c(C4CC4)nn(C)c3n2)cn1,inactive: 1.12
11,CC1(C)C2C[C@@H]1CC=C2CCO,inactive: 1.24
12,COc1ccc(S(=O)(=O)c2ccc(OC)c(OC)c2)cc1OC,inactive: 1.33
13,C(=N/N1CCN(C2c3ccccc3-c3ccccc32)CC1)/c1cccnc1,inactive: 0.874
14,CCOC(=O)/C=C(/C)Nc1nonc1NC(C)=O,inactive: 1.08
15,O=C1NC(=S)S/C1=C/C1=C(O)C=CCC1,inactive: 1.19
16,CCC1C(C#N)=C(N)OC2=C1C(=O)OC1C=CC=CC21 (centres undefined),inactive: 0.825
17,N#CC1=C(N)NC(S)=C(C#N)C12CCCCC2,inactive: 1.15
18,Cc1noc(C)c1NC(=O)C1CCN(S(C)(=O)=O)CC1,inactive: 0.97
19,CC(C)C1(C(C)C)OCCO1,inactive: 1.15
20,COC(=O)CCCC[C@H]1SC[C@@H](NC(C)=O)[C@@H]1OC(C)=O,inactive: 1.29
21,Cc1ccc(S(=O)OC2CC(C)CC[C@H]2C(C)C)cc1 (some centres undefined),inactive: 1.29
22,O=C1Nc2ccc3cn[nH]c3c2C1=O,inactive: 1.17
23,c1csc(C2=N[C@@H](c3cccs3)[C@@H](c3cccs3)N2)c1,inactive: 1.64
24,COc1cc(OC)c(C2C(C#N)=C(N)SC(N)=C2C#N)cc1OC,inactive: 0.989
25,S=C(Nc1ccccc1)NN1CCN(C2c3ccccc3-c3ccccc32)CC1,inactive: 0.844
26,C/C(=N/NC(=O)c1ccoc1C)c1ccco1,inactive: 0.985
27,Cc1ccc(/C=N/n2c(S)nnc2-c2ccc(C(C)(C)C)cc2)cc1,inactive: 0.859

row,SMILES,cell-surface Lgr5 expression
1,C=CCNc1nc(N)c(C(=O)C23CC4CC(CC(C4)C2)C3)s1,inactive: 0.997
2,CS(=O)(=O)N1CCCc2ccccc21,inactive: 1.07
3,CCOC(=O)C(=O)c1nccn1C,inactive: 1.26
4,CC1(C)COCC(C)(C)N1,inactive: 1.18
5,O=C(O)CC(C(=O)OCC1CCCO1)N1CCOCC1 (centres undefined),inactive: 1.05
6,CSc1nsc(NC(=O)c2nc[nH]n2)n1,inactive: 1.11
7,COc1ccc(-c2nn(CN3CCN(C(c4ccccc4)c4ccccc4)CC3)c(=S)n2C)cc1OC,inactive: 1.05
8,N#CC1(N2CCCCC2)C2CC3CC(C2)CC1C3 (centres undefined),inactive: 1.17
9,Fc1ccc(C2N(Cc3ccccc3)CCN2Cc2ccccc2)cc1,inactive: 1.42
10,C/C(=N/N)c1nnn(-c2nonc2N)c1C,inactive: 1.06
11,CC1S/C(=N/N=C\c2ccc(F)cc2)N=C1O (centres undefined),inactive: 1.13
12,O=S(=O)(Nc1ccc(Br)cn1)c1ccccc1,inactive: 1.2
13,O=C(O)C1Nc2c(Cl)cc(Cl)cc2C2C=CCC12 (centres undefined),inactive: 1.06
14,O=S(=O)(c1ccc(Br)cc1)N1CCc2ccccc2C1,inactive: 1.37
15,Nc1csnc1-c1nnc(Nc2ccc3c(c2)OCO3)o1,inactive: 1.23
16,OC1(C(F)(F)F)CC(c2cccs2)=NO1 (centres undefined),inactive: 1.21
17,c1ccc(Cn2cc(Cn3nnc(-c4ccccc4)n3)nn2)cc1,inactive: 1.12
18,Clc1ccc(CSc2ncn[nH]2)cc1Cl,inactive: 1.01
19,N#Cc1c(N)nc2c(sc3nc4c(cc32)CCC4)c1-c1ccc(Br)cc1,inactive: 1.18
20,Fc1ccccc1N1CCN(Cn2cnc3ccccc32)CC1,inactive: 1.35
21,S=c1oc(-c2ccco2)nn1CN1CCOCC1,inactive: 1.13
22,C=CCC1(CC=C)CCCCN1.Cl,inactive: 1.09
23,CC12CC3(C)CC(N)(C1)CC(C(=O)O)(C2)C3,inactive: 1.37
24,CC(C)CC1CCCC(CC(C)C)N1CCO (centres undefined),inactive: 1.2
25,O=C1CCC(C(=O)O)NC(=O)N1 (centres undefined),inactive: 1.26
26,O=C(Nc1ccc2c(c1)OC1(CCCC1)O2)C1CC1,inactive: 1.06
27,Brc1ccc(/C=N\c2ccc3cc4ccc(/N=C\c5ccc(Br)cc5)cc4nc3c2)cc1,inactive: 1.32
